# Measured values taken from the supplement of paper PMC8728848.
# This is one part of the list.
# B1: AntigenI/IIC123 (Streptococcus mutans), C9E3B4 (protein)
# chain: MASMTGGQQMGRIHFHYFKLAVQPQVNKEIRNNNDINIDRTLVAKQSVVKFQLKTADLPAGRDETTSFVLVDPLPSGYQFNPEATKAASPGFDVTYDNATNTVTFKATAATLATFNADLTKSVATIYPTVVGQVLNDGATYKNNFTLTVNDAYGIKSNVVRVTTPGKPNDPDNPNNNYIKPTKVNKNENGVVIDGKTVLAGSTNYYELTWDLDQYKNDRSSADTIQKGFYYVDDYPEEALELRQDLVKITDANGNEVTGVSVDNYTNLEAAPQEIRDVLSKAGIRPKGAFQIFRADNPREFYDTYVKTGIDLKIVSPMVVKKQMGQTGGSYENQAYQIDFGNGYASNIIINNVPKINPKKDVTLTLDPADTNNVDGQTIPLNTVFNYRLIGGIIPADHSEELFEYNFYDDYDQTGDHYTGQYKVFAKVDITFKDGSIIKSGAELTQYTTAEVDTAKGAITIKFKEAFLRSVSIDSAFQAESYIQMKRIAVGTFENTYINTVNGVTYSSLEHHHHHH
# Legend:
# Experiment in all cases: glycan array binding signal (z-score within array); higher = stronger binding
# Details in all cases: glycan notation: IUPAC condensed, linker removed
# [1] = biological target: GalNAc3S(b1-4)[Fuc(a1-3)]GlcNAc
# In short: (§1)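 From the Consortium for Functional Glycomics database, 3228 arrays were curated, keeping only those whose protein sequence was available. Binding is given as a within-array Z-score averaged across arrays sharing a protein sequence and across linkers. Negative Z-scores can be read as non-binding.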
# [2] = biological target: GalNAc4S6S(b1-4)GlcNAc
# In short: as §1
# [3] = biological target: GalNAc6S(b1-4)GlcNAc
# In short: as §1
# [4] = biological target: Glc(a1-4)Glc
# In short: as §1
# [5] = biological target: Glc(a1-4)Glc(a1-4)Glc(a1-4)Glc
# In short: as §1
# [6] = biological target: Glc(a1-6)Glc(a1-6)Glc
# In short: as §1
# [7] = biological target: Glc(a1-6)Glc(a1-6)Glc(a1-6)Glc
# In short: as §1
# [8] = biological target: Glc(b1-4)Glc
# In short: as §1
# [9] = biological target: Glc(b1-6)Glc
# In short: as §1
# [10] = biological target: GlcA(b1-3)Gal
# In short: as §1
# [11] = biological target: GlcA(b1-3)GlcNAc
# In short: as §1
# [12] = biological target: GlcA(b1-6)Gal
# In short: as §1
# [13] = biological target: GlcA3S(b1-3)Gal(b1-4)GlcNAc(b1-2)Man
# In short: as §1
# [14] = biological target: GlcA3S(b1-3)Gal(b1-4)GlcNAc(b1-3)Gal(b1-4)Glc
# In short: as §1
# [15] = biological target: GlcNAc(a1-3)Gal(b1-4)GlcNAc
# In short: as §1
# [16] = biological target: GlcNAc(a1-4)Gal(b1-3)GlcNAc
# In short: as §1
# [17] = biological target: GlcNAc(a1-4)Gal(b1-4)GalNAc
# In short: as §1
# [18] = biological target: GlcNAc(a1-4)Gal(b1-4)GlcNAc
# In short: as §1
# [19] = biological target: GlcNAc(a1-4)Gal(b1-4)GlcNAc(b1-3)Gal(b1-4)Glc
# In short: as §1
# [20] = biological target: GlcNAc(a1-4)Gal(b1-4)GlcNAc(b1-3)Gal(b1-4)GlcNAc
# In short: as §1
# [21] = biological target: GlcNAc(a1-4)Gal(b1-4)GlcNAc(b1-3)Gal(b1-4)GlcNAc(b1-3)Gal(b1-4)GlcNAc
# In short: as §1
# [22] = biological target: GlcNAc(a1-4)Gal(b1-4)GlcNAc(b1-3)Gal(b1-4)[Fuc(a1-3)]GlcNAc(b1-3)Gal(b1-4)[Fuc(a1-3)]GlcNAc
# In short: as §1
# [23] = biological target: GlcNAc(a1-6)Gal(b1-4)GlcNAc
# In short: as §1
# [24] = biological target: GlcNAc(b1-2)Gal(b1-3)GalNAc
# In short: as §1
# [25] = biological target: GlcNAc(b1-2)Man(a1-3)[GlcNAc(b1-2)Man(a1-6)]Man(b1-4)GlcNAc(b1-4)GlcNAc
# In short: as §1
# [26] = biological target: GlcNAc(b1-2)Man(a1-3)[GlcNAc(b1-2)Man(a1-6)]Man(b1-4)GlcNAc(b1-4)[Fuc(a1-6)]GlcNAc
# In short: as §1
# [27] = biological target: GlcNAc(b1-2)Man(a1-3)[GlcNAc(b1-4)][GlcNAc(b1-2)Man(a1-6)]Man(b1-4)GlcNAc(b1-4)GlcNAc
# In short: as §1
# [28] = biological target: GlcNAc(b1-2)Man(a1-3)[GlcNAc(b1-4)][GlcNAc(b1-2)Man(a1-6)]Man(b1-4)GlcNAc(b1-4)[Fuc(a1-6)]GlcNAc
# In short: as §1
# [29] = biological target: GlcNAc(b1-2)[GlcNAc(b1-4)]Man(a1-3)[GlcNAc(b1-2)Man(a1-6)]Man(b1-4)GlcNAc(b1-4)GlcNAc
# In short: as §1
# [30] = biological target: GlcNAc(b1-2)[GlcNAc(b1-4)]Man(a1-3)[GlcNAc(b1-4)][GlcNAc(b1-2)Man(a1-6)]Man(b1-4)GlcNAc(b1-4)GlcNAc
# In short: as §1
# [31] = biological target: GlcNAc(b1-2)[GlcNAc(b1-4)]Man(a1-3)[GlcNAc(b1-4)][GlcNAc(b1-2)[GlcNAc(b1-6)]Man(a1-6)]Man(b1-4)GlcNAc(b1-4)GlcNAc
# In short: as §1
# [32] = biological target: GlcNAc(b1-2)[GlcNAc(b1-4)]Man(a1-3)[GlcNAc(b1-4)][GlcNAc(b1-2)[GlcNAc(b1-6)]Man(a1-6)]Man(b1-4)GlcNAc(b1-4)[Fuc(a1-6)]GlcNAc
# In short: as §1
# [33] = biological target: GlcNAc(b1-2)[GlcNAc(b1-6)]Man(a1-6)[GlcNAc(b1-2)Man(a1-3)]Man(b1-4)GlcNAc(b1-4)GlcNAc
# In short: as §1
# [34] = biological target: GlcNAc(b1-2)[GlcNAc(b1-6)]Man(a1-6)[GlcNAc(b1-2)Man(a1-3)]Man(b1-4)GlcNAc(b1-4)[Fuc(a1-6)]GlcNAc
# In short: as §1
# [35] = biological target: GlcNAc(b1-2)[GlcNAc(b1-6)]Man(a1-6)[GlcNAc(b1-4)][GlcNAc(b1-2)Man(a1-3)]Man(b1-4)GlcNAc(b1-4)GlcNAc
# In short: as §1
# [36] = biological target: GlcNAc(b1-3)Fuc
# In short: as §1
# [37] = biological target: GlcNAc(b1-3)Gal
# In short: as §1
# [38] = biological target: GlcNAc(b1-3)Gal(b1-3)GalNAc
# In short: as §1
binder,measurement,setting,value
B1,glycan array binding signal (z-score),[1],-0.315
same,glycan array binding signal (z-score),[2],-0.7
same,glycan array binding signal (z-score),[3],-0.005
same,glycan array binding signal (z-score),[4],-0.709
same,glycan array binding signal (z-score),[5],-0.371
same,glycan array binding signal (z-score),[6],-0.039
same,glycan array binding signal (z-score),[7],1.8
same,glycan array binding signal (z-score),[8],1.18
same,glycan array binding signal (z-score),[9],-1.44
same,glycan array binding signal (z-score),[10],-0.936
same,glycan array binding signal (z-score),[11],-1.01
same,glycan array binding signal (z-score),[12],0.592
same,glycan array binding signal (z-score),[13],-0.897
same,glycan array binding signal (z-score),[14],0.294
same,glycan array binding signal (z-score),[15],-1.29
same,glycan array binding signal (z-score),[16],-0.857
same,glycan array binding signal (z-score),[17],-0.906
same,glycan array binding signal (z-score),[18],-1.06
same,glycan array binding signal (z-score),[19],-1.01
same,glycan array binding signal (z-score),[20],-0.389
same,glycan array binding signal (z-score),[21],0.238
same,glycan array binding signal (z-score),[22],1.62
same,glycan array binding signal (z-score),[23],-1.01
same,glycan array binding signal (z-score),[24],0.93
same,glycan array binding signal (z-score),[25],0.065
same,glycan array binding signal (z-score),[26],2.7
same,glycan array binding signal (z-score),[27],-0.737
same,glycan array binding signal (z-score),[28],-1.21
same,glycan array binding signal (z-score),[29],-0.577
same,glycan array binding signal (z-score),[30],-0.064
same,glycan array binding signal (z-score),[31],-1.08
same,glycan array binding signal (z-score),[32],-0.469
same,glycan array binding signal (z-score),[33],-1.08
same,glycan array binding signal (z-score),[34],1.21
same,glycan array binding signal (z-score),[35],-0.992
same,glycan array binding signal (z-score),[36],-0.168
same,glycan array binding signal (z-score),[37],-0.355
same,glycan array binding signal (z-score),[38],-0.249

# 3 entries from above, with bars between the fields:
binder | measurement | setting | value
B1 | glycan array binding signal (z-score) | [36] | -0.168
same | glycan array binding signal (z-score) | [37] | -0.355
same | glycan array binding signal (z-score) | [38] | -0.249
